Reference: publication PMC12316392
These are yes or no findings as the source states them, for the method shown. Binding seen in cells or lysates may run through a third protein. Some results given as binding are weak or reduced against the parent protein; the word gives no strength. Tags and fused reporters may be left off the sequences shown.

Sequences of proteins named here, by UniProt entry; tags and fusion partners are left off.
UniProt P49336: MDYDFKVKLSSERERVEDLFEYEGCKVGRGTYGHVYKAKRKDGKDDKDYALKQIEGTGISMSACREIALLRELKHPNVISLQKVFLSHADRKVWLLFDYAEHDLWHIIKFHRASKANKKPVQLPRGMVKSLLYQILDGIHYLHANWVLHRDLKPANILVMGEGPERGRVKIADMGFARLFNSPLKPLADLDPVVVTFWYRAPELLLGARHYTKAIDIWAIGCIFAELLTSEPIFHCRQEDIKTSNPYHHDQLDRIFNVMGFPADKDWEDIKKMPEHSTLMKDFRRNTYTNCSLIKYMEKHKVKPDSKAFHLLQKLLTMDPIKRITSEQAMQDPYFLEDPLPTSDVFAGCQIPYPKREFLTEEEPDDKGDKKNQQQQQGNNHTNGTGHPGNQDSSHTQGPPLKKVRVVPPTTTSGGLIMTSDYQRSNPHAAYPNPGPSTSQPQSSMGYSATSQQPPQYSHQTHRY
UniProt Q15648: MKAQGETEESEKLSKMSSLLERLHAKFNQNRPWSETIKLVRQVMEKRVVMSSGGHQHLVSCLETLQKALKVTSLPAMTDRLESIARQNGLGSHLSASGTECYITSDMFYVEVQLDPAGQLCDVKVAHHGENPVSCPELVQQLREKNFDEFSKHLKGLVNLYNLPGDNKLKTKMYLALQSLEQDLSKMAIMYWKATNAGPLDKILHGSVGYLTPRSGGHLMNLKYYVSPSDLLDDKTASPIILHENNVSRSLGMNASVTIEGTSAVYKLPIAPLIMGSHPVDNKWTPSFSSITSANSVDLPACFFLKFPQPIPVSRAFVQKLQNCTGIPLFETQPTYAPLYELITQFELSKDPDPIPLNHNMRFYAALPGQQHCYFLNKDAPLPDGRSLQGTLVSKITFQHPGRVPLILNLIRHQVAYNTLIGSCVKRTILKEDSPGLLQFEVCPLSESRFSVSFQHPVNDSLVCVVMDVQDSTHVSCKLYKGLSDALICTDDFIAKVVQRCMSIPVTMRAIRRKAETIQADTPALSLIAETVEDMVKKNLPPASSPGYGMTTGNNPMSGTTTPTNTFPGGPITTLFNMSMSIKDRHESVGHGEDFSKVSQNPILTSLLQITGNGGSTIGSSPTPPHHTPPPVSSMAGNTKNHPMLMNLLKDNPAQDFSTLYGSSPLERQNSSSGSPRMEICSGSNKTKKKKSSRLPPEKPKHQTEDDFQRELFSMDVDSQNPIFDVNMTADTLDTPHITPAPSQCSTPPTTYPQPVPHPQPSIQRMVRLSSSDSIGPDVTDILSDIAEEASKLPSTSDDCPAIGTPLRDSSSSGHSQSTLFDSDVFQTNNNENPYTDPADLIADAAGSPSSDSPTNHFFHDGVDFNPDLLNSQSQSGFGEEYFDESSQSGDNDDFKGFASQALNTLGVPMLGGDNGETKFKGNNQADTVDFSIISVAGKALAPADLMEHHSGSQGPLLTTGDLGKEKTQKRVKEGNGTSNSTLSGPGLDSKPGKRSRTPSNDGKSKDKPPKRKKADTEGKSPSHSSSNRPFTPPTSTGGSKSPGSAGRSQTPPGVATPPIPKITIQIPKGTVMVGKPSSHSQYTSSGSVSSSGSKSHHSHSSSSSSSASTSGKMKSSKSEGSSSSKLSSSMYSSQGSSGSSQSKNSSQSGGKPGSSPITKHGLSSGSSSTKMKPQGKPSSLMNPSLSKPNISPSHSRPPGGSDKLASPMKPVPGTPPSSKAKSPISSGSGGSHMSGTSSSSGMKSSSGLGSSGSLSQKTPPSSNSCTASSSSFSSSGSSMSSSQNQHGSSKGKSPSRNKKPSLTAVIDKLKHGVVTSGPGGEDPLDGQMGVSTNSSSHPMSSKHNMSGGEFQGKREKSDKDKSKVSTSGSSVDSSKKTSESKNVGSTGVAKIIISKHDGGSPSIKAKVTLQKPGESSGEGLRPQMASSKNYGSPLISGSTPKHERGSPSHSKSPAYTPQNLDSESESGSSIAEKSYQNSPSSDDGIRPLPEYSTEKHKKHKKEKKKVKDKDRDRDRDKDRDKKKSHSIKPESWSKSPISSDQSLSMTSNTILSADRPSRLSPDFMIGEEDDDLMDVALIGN
UniProt O43524: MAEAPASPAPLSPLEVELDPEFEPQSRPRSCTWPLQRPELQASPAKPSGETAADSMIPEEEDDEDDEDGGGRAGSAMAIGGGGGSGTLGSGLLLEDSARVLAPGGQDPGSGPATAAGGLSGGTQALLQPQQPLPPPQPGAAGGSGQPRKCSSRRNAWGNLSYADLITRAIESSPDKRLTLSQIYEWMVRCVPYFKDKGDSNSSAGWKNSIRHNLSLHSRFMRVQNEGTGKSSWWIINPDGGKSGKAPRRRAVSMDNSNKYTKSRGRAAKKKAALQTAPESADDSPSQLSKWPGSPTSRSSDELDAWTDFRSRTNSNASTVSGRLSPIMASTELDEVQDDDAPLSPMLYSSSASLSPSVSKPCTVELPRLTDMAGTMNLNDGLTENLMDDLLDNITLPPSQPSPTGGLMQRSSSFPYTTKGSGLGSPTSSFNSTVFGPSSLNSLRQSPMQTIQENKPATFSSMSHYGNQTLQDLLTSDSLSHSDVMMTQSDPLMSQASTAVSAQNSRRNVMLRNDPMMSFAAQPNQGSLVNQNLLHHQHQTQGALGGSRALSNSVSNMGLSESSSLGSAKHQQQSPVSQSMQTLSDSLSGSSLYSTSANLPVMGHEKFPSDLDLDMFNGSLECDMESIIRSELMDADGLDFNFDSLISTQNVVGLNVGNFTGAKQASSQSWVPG

T1: endogenous HA-Med23 (HA-Med23-KI HEK293T cells) (human (endogenous in HEK293T)) (UniProt Q9ULK4)
T1 sequence: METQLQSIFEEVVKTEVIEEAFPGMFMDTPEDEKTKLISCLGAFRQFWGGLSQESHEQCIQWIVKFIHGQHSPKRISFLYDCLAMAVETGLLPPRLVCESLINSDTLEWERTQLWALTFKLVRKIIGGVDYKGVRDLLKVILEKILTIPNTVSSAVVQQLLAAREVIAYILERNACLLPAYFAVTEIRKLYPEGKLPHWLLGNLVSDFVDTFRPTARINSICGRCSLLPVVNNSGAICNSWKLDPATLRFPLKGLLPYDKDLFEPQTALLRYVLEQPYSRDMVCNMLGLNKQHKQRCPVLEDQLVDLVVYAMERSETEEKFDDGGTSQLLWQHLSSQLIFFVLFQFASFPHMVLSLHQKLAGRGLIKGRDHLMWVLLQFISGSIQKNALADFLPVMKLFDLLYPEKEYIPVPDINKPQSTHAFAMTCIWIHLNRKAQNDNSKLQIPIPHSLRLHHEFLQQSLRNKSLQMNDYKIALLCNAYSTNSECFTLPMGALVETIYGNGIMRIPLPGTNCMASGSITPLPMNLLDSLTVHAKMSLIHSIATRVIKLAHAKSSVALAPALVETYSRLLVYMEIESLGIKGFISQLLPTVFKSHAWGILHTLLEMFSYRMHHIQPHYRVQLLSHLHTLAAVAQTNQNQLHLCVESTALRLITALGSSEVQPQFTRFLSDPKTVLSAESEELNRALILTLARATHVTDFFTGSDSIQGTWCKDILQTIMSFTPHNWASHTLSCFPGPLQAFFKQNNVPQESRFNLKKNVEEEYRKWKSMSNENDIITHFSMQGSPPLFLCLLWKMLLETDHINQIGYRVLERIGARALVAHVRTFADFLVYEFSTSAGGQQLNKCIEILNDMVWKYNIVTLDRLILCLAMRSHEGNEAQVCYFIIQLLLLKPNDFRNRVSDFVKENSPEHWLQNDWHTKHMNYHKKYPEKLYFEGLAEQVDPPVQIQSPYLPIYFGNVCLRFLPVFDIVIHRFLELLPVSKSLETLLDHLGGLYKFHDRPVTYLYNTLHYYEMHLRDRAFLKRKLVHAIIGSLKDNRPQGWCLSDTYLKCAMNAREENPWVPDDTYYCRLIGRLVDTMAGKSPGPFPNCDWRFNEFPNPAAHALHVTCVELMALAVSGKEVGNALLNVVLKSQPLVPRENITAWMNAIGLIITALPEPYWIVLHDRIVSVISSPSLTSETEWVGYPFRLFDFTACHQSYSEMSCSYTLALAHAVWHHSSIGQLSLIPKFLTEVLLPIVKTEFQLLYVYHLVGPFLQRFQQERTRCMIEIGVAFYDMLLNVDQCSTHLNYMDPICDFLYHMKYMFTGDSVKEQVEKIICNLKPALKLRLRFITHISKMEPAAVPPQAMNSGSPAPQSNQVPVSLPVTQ

B1: Mediator subunit Med16 (protein, UniProt Q9Y2X0 1-877)
chain: MCDLRRPAAGGMMDLAYVCEWEKWSKSTHCPSVPLACAWSCRNLIAFTMDLRSDDQDLTRMIHILDTEHPWDLHSIPSEHHEAITCLEWDQSGSRLLSADADGQIKCWSMADHLANSWESSVGSLVEGDPIVALSWLHNGVKLALHVEKSGASSFGEKFSRVKFSPSLTLFGGKPMEGWIAVTVSGLVTVSLLKPSGQVLTSTESLCRLRGRVALADIAFTGGGNIVVATADGSSASPVQFYKVCVSVVSEKCRIDTEILPSLFMRCTTDLNRKDKFPAITHLKFLARDMSEQVLLCASSQTSSIVECWSLRKEGLPVNNIFQQISPVVGDKQPTILKWRILSATNDLDRVSAVALPKLPISLTNTDLKVASDTQFYPGLGLALAFHDGSVHIVHRLSLQTMAVFYSSAAPRPVDEPAMKRPRTAGPAVHLKAMQLSWTSLALVGIDSHGKLSVLRLSPSMGHPLEVGLALRHLLFLLEYCMVTGYDWWDILLHVQPSMVQSLVEKLHEEYTRQTAALQQVLSTRILAMKASLCKLSPCTVTRVCDYHTKLFLIAISSTLKSLLRPHFLNTPDKSPGDRLTEICTKITDVDIDKVMINLKTEEFVLDMNTLQALQQLLQWVGDFVLYLLASLPNQGSLLRPGHSFLRDGTSLGMLRELMVVIRIWGLLKPSCLPVYTATSDTQDSMSLLFRLLTKLWICCRDEGPASEPDEALVDECCLLPSQLLIPSLDWLPASDGLVSRLQPKQPLRLQFGRAPTLPGSAATLQLDGLARAPGQPKIDHLRRLHLGACPTEECKACTRCGCVTMLKSPNRTTAVKQWEQRWIKNCLAVEGRGPDACVTSRASEEAPAFVQLGPQSTHHSPRTPRSLDHLHPEDRP
B2: Mediator subunit Med24 (protein, UniProt O75448 1-989)
chain: MKVVNLKQAILQAWKERWSDYQWAINMKKFFPKGATWDILNLADALLEQAMIGPSPNPLILSYLKYAISSQMVSYSSVLTAISKFDDFSRDLCVQALLDIMDMFCDRLSCHGKAEECIGLCRALLSALHWLLRCTAASAERLREGLEAGTPAAGEKQLAMCLQRLEKTLSSTKNRALLHIAKLEEASSWTAIEHSLLKLGEILANLSNPQLRSQAEQCGTLIRSIPTMLSVHAEQMHKTGFPTVHAVILLEGTMNLTGETQSLVEQLTMVKRMQHIPTPLFVLEIWKACFVGLIESPEGTEELKWTAFTFLKIPQVLVKLKKYSHGDKDFTEDVNCAFEFLLKLTPLLDKADQRCNCDCTNFLLQECGKQGLLSEASVNNLMAKRKADREHAPQQKSGENANIQPNIQLILRAEPTVTNILKTMDADHSKSPEGLLGVLGHMLSGKSLDLLLAAAAATGKLKSFARKFINLNEFTTYGSEESTKPASVRALLFDISFLMLCHVAQTYGSEVILSESRTGAEVPFFETWMQTCMPEEGKILNPDHPCFRPDSTKVESLVALLNNSSEMKLVQMKWHEACLSISAAILEILNAWENGVLAFESIQKITDNIKGKVCSLAVCAVAWLVAHVRMLGLDEREKSLQMIRQLAGPLFSENTLQFYNERVVIMNSILERMCADVLQQTATQIKFPSTGVDTMPYWNLLPPKRPIKEVLTDIFAKVLEKGWVDSRSIHIFDTLLHMGGVYWFCNNLIKELLKETRKEHTLRAVELLYSIFCLDMQQVTLVLLGHILPGLLTDSSKWHSLMDPPGTALAKLAVWCALSSYSSHKGQASTRQKKRHREDIEDYISLFPLDDVQPSKLMRLLSSNEDDANILSSPTDRSMSSSLSASQLHTVNMRDPLNRVLANLFLLISSILGSRTAGPHTQFVQWFMEECVDCLEQGGRGSVLQFMPFTTVSELVKVSAMSSPKVVLAITDLSLPLGRQVAAKAIAAL

Target: T1, endogenous HA-Med23 (HA-Med23-KI HEK293T cells) (human (endogenous in HEK293T))
Test: co-IP; lysates of HA-Med23-KI HEK293T cells immunoprecipitated with the HA antibody; immunoblot of endogenous partners

Molecule | binding
Mediator subunit CDK8 (from UniProt P49336 1-464) | binds
Mediator subunit Med1 (from UniProt Q15648 1-1581) | binds
endogenous Foxo3 (forkhead box O3) (from UniProt O43524 1-673) | binds
B1 | binds
B2 | binds

Target: T1, endogenous HA-Med23 (HA-Med23-KI HEK293T cells) (human (endogenous in HEK293T))
Test: cross-linking + co-IP; HA-Med23-KI HEK293T cells treated with DSP (20uM); lysates immunoprecipitated with the HA antibody; immunoblot of endogenous Foxo3

Molecule | binding
endogenous Foxo3 (forkhead box O3) (from UniProt O43524 1-673) | binds
